From patent US9029095B2, “Method and kits for determining platelet susceptibility to activation in a patient” (Institut National de la Sante et de la Recherche Medicale …, priority 2010, dated 2015)
Entries after “also recorded” stand apart in the source; their conditions may differ. For at least one compound, name, drawing or mass did not settle the structure.

System: GPVI dimerization on platelets
Experiment: Effect of agonists and inhibitors on 9E18 binding to platelets (GPVI dimerization), flow cytometry
Format: cell-based, human
Conditions: ADP-; for effect on 9E18 binding / GPVI dimerization of activated platelets: TRAP- or PMA-activated platelets

C=C[C@@]1(C)CC(=O)[C@]2(O)[C@@]3(C)[C@@H](O)CCC(C)(C)[C@@H]3[C@H](O)[C@H](OC(C)=O)[C@@]2(C)O1 [forskolin]
effect on 9E18 binding / GPVI dimerization of activated platelets: similarly blocked; also recorded: inhibition | effect on 9E18 binding / GPVI dimerization of activated platelets (listed as Forskoline): drastically reduced | effect on 9E18 binding to resting as well as activated platelets (resting, TRAP- or PMA-activated washed platelets): inhibited
